Data as given in PubChem BioAssay AID652243 (Drosophila RNAi Screening Center, 2013).

Assay: 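Knock-downs that decrease or increase androgen receptor reporter signal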 (primary screen)
Cells: Drosophila S2R+ cells
Reagents: long dsRNA against Drosophila genes
Duration: 72 h (48 h, then 24 h hormone)
Treatment: synthetic androgen R1881 at 10 nM for 24 h
Read-out: 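Per-well raw luminescence of the androgen-driven firefly reporter and of the Renilla control, two replicates each, without normalisation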
Reading the numbers: firefly reporter light: higher = more light from androgen-responsive reporter; Renilla control light: higher = more constitutive control signal (cell number, transfection)
Hit rule: 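Hit when the log firefly-to-Renilla ratio dropped or increased by a fixed fold versus the mean of GFP or LacZ controls across duplicate plates; lowering cut given as 1.5 and as 3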
Meaning of the calls: active = hit: reporter lowered or raised; inactive = no hit
The screen tested about 24,000 reagents; below is an unselected part of those with a known target gene and a result. Over the whole deposit, 246 (1%) are marked active. 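Plates not normalised; calls are printed but the firefly/Renilla ratio behind them is not deposited; fold cut for lowering reported inconsistently.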 The raw values are shown without normalisation. A plus sign joins genes that one reagent is predicted to hit. Reagent sequences are not shown. The record does not give: the amount of reagent.

CG3565 [DRSC04389]: firefly reporter light, replicate 1 = 4.13e5; firefly reporter light, replicate 2 = 7.66e5; Renilla control light, replicate 1 = 7.30e5; Renilla control light, replicate 2 = 1.01e6; call = inactive
Lipt1 + CG42837 [DRSC07183]: firefly reporter light, replicate 1 = 1.15e6; firefly reporter light, replicate 2 = 7.16e5; Renilla control light, replicate 1 = 1.93e6; Renilla control light, replicate 2 = 1.13e6; call = inactive
RpL26 (Ribosomal protein L26) [DRSC10726]: firefly reporter light, replicate 1 = 1.62e5; firefly reporter light, replicate 2 = 2.12e5; Renilla control light, replicate 1 = 1.27e6; Renilla control light, replicate 2 = 2.10e6; call = inactive
Pex16 (Peroxin 16) [DRSC11750]: firefly reporter light, replicate 1 = 44340; firefly reporter light, replicate 2 = 98885; Renilla control light, replicate 1 = 3.81e5; Renilla control light, replicate 2 = 4.86e5; call = inactive
sigmar (salivary glands marred) [DRSC04449]: firefly reporter light, replicate 1 = 8.25e5; firefly reporter light, replicate 2 = 8.04e5; Renilla control light, replicate 1 = 8.02e5; Renilla control light, replicate 2 = 9.49e5; call = inactive
Rab2 [DRSC05017]: firefly reporter light, replicate 1 = 6.27e5; firefly reporter light, replicate 2 = 9.96e5; Renilla control light, replicate 1 = 1.67e6; Renilla control light, replicate 2 = 2.12e6; call = inactive
Rab2 [DRSC26810]: firefly reporter light, replicate 1 = 3.38e5; firefly reporter light, replicate 2 = 2.87e5; Renilla control light, replicate 1 = 6.67e5; Renilla control light, replicate 2 = 4.20e5; call = inactive
HP1b (Heterochromatin Protein 1b) [DRSC18418]: firefly reporter light, replicate 1 = 2.28e5; firefly reporter light, replicate 2 = 2.93e5; Renilla control light, replicate 1 = 2.60e6; Renilla control light, replicate 2 = 3.45e6; call = inactive
HP1b (Heterochromatin Protein 1b) [DRSC29826]: firefly reporter light, replicate 1 = 5.20e5; firefly reporter light, replicate 2 = 4.01e5; Renilla control light, replicate 1 = 1.66e6; Renilla control light, replicate 2 = 1.77e6; call = inactive
mRpL11 (mitochondrial ribosomal protein L11) [DRSC15482]: firefly reporter light, replicate 1 = 1.80e5; firefly reporter light, replicate 2 = 1.45e5; Renilla control light, replicate 1 = 2.48e6; Renilla control light, replicate 2 = 2.09e6; call = inactive
mwh (multiple wing hairs) [DRSC08382]: firefly reporter light, replicate 1 = 35257; firefly reporter light, replicate 2 = 89602; Renilla control light, replicate 1 = 8.90e5; Renilla control light, replicate 2 = 7.13e5; call = inactive
mwh (multiple wing hairs) [DRSC27439]: firefly reporter light, replicate 1 = 3.52e5; firefly reporter light, replicate 2 = 3.68e5; Renilla control light, replicate 1 = 5.85e5; Renilla control light, replicate 2 = 7.92e5; call = inactive
mwh (multiple wing hairs) [DRSC38854]: firefly reporter light, replicate 1 = 6.38e5; firefly reporter light, replicate 2 = 7.57e5; Renilla control light, replicate 1 = 1.49e6; Renilla control light, replicate 2 = 1.84e6; call = inactive
CG3281 [DRSC15470]: firefly reporter light, replicate 1 = 81418; firefly reporter light, replicate 2 = 88717; Renilla control light, replicate 1 = 5.69e5; Renilla control light, replicate 2 = 8.44e5; call = inactive
CG3281 [DRSC28414]: firefly reporter light, replicate 1 = 3.14e5; firefly reporter light, replicate 2 = 3.69e5; Renilla control light, replicate 1 = 5.36e5; Renilla control light, replicate 2 = 9.38e5; call = inactive
CG7492 [DRSC10855]: firefly reporter light, replicate 1 = 8.21e5; firefly reporter light, replicate 2 = 4.17e5; Renilla control light, replicate 1 = 1.24e6; Renilla control light, replicate 2 = 9.50e5; call = inactive
CG12723 [DRSC19499]: firefly reporter light, replicate 1 = 4.80e5; firefly reporter light, replicate 2 = 6.98e5; Renilla control light, replicate 1 = 1.46e6; Renilla control light, replicate 2 = 1.86e6; call = inactive
CG12723 [DRSC26290]: firefly reporter light, replicate 1 = 3.25e5; firefly reporter light, replicate 2 = 4.81e5; Renilla control light, replicate 1 = 8.60e5; Renilla control light, replicate 2 = 5.12e5; call = inactive
CG6845 [DRSC08576]: firefly reporter light, replicate 1 = 6.48e5; firefly reporter light, replicate 2 = 7.51e5; Renilla control light, replicate 1 = 1.43e6; Renilla control light, replicate 2 = 1.36e6; call = inactive
CG6845 [DRSC26319]: firefly reporter light, replicate 1 = 6.07e5; firefly reporter light, replicate 2 = 4.26e5; Renilla control light, replicate 1 = 7.71e5; Renilla control light, replicate 2 = 8.22e5; call = inactive
fws (four way stop) [DRSC02969]: firefly reporter light, replicate 1 = 8.56e5; firefly reporter light, replicate 2 = 1.35e6; Renilla control light, replicate 1 = 1.21e6; Renilla control light, replicate 2 = 1.69e6; call = inactive
fws (four way stop) [DRSC29678]: firefly reporter light, replicate 1 = 1.96e5; firefly reporter light, replicate 2 = 2.38e5; Renilla control light, replicate 1 = 5.73e5; Renilla control light, replicate 2 = 5.73e5; call = inactive
Ugt37B1 (UDP-glycosyltransferase family 37 member B1) [DRSC03225]: firefly reporter light, replicate 1 = 1.52e5; firefly reporter light, replicate 2 = 1.36e5; Renilla control light, replicate 1 = 1.87e6; Renilla control light, replicate 2 = 1.54e6; call = inactive
Gdi (GDP dissociation inhibitor) [DRSC03330]: firefly reporter light, replicate 1 = 9.65e5; firefly reporter light, replicate 2 = 8.76e5; Renilla control light, replicate 1 = 2.54e6; Renilla control light, replicate 2 = 2.66e6; call = inactive
Gdi (GDP dissociation inhibitor) [DRSC28978]: firefly reporter light, replicate 1 = 5.49e5; firefly reporter light, replicate 2 = 3.67e5; Renilla control light, replicate 1 = 1.04e6; Renilla control light, replicate 2 = 9.18e5; call = inactive
unpg (unplugged) [DRSC07713]: firefly reporter light, replicate 1 = 3.30e5; firefly reporter light, replicate 2 = 1.83e5; Renilla control light, replicate 1 = 1.71e6; Renilla control light, replicate 2 = 1.11e6; call = inactive
unpg (unplugged) [DRSC28861]: firefly reporter light, replicate 1 = 3.31e5; firefly reporter light, replicate 2 = 3.82e5; Renilla control light, replicate 1 = 9.10e5; Renilla control light, replicate 2 = 7.42e5; call = inactive

An excerpt from the list above:
fws (four way stop) [DRSC02969]: firefly reporter light, replicate 1 = 8.56e5; firefly reporter light, replicate 2 = 1.35e6; Renilla control light, replicate 1 = 1.21e6; Renilla control light, replicate 2 = 1.69e6; call = inactive
fws (four way stop) [DRSC29678]: firefly reporter light, replicate 1 = 1.96e5; firefly reporter light, replicate 2 = 2.38e5; Renilla control light, replicate 1 = 5.73e5; Renilla control light, replicate 2 = 5.73e5; call = inactive
Ugt37B1 (UDP-glycosyltransferase family 37 member B1) [DRSC03225]: firefly reporter light, replicate 1 = 1.52e5; firefly reporter light, replicate 2 = 1.36e5; Renilla control light, replicate 1 = 1.87e6; Renilla control light, replicate 2 = 1.54e6; call = inactive
